These results are taken from patent publication US20020165617A1, “Phospholipid-coated implants” (DESTINY PHARMA LIMITED, priority 1999, published 2002).

The nature of this data set: Calcium phosphate precipitation on coated smooth titanium coupon in Simulated Body Fluid. As to conditions: 222 μmol/mL. From the text:
Smooth titanium coupons were coated with phosphatidylserine only as described in Example 5 at 222 μmol/mL. The experimental protocol used was as described in Example 3.

“Also recorded” adds a separate entry of the source.

Phosphatidylserine: for the setting “Simulated Body Fluid 37° C.”, the “incubation time after which white circles were visible” value was “a few minutes”. For the same substance, under “Simulated Body Fluid 7 days 37° C.”, the “EDAX analysis of coated area (calcium and phosphorus)” value was “capable of binding calcium to the surface of different implant coupons; also recorded: significant peaks for calcium and phosphorus”.
